Data source: PubChem BioAssay AID1259308 (NCATS, 2017)

Purpose: 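Genes whose loss raises luciferase production in HEK293 cells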 (primary screen)
Cells: human HEK293 embryonic kidney cells stably expressing firefly luciferase (HEK-CMV-Luc2-Hygro)
Knock-down reagent: single siRNA against human genes, 0.8 pmol siRNA per well
Duration: 72 h
Measured: 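Reporter luminescence and viable-cell signal on separate replicate plates, given as percent of non-targeting control and median/MAD z-scores, plus per-cell luciferase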
Reading the numbers: total luciferase, z-score: higher = more reporter protein produced
Call rule: 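An siRNA counts as active if its total luciferase robust z-score exceeds 3; genes with two or more such siRNAs out of three were retested with fresh siRNAs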
Calls: active = raised luciferase; inactive = no rise
This is a random part of about 59,000 deposited reagents. In the full data, about 1,510 (2.6%) are marked active. 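Calls use total luciferase alone and ignore viability, so some active siRNAs may act by altering cell number.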 The numbers tell different reagents against one gene apart. Not all columns of the deposit are shown.

{"gene symbol":"TRIM23","reagent no.":1,"total luciferase, z-score":1.94,"outcome":"inactive"}
{"gene symbol":"TRIM23","reagent no.":2,"total luciferase, z-score":-0.39,"outcome":"inactive"}
{"gene symbol":"TRIM23","reagent no.":3,"total luciferase, z-score":-1.15,"outcome":"inactive"}
{"gene symbol":"MAPK10","reagent no.":1,"total luciferase, z-score":0.0237,"outcome":"inactive"}
{"gene symbol":"MAPK10","reagent no.":2,"total luciferase, z-score":-1.11,"outcome":"inactive"}
{"gene symbol":"MAPK10","reagent no.":3,"total luciferase, z-score":2.37,"outcome":"inactive"}
{"gene symbol":"NBPF7P","reagent no.":1,"total luciferase, z-score":3.46,"outcome":"active"}
{"gene symbol":"NBPF7P","reagent no.":2,"total luciferase, z-score":-0.783,"outcome":"inactive"}
{"gene symbol":"NBPF7P","reagent no.":3,"total luciferase, z-score":0.17,"outcome":"inactive"}
{"gene symbol":"PNMA6A","reagent no.":1,"total luciferase, z-score":1.12,"outcome":"inactive"}
{"gene symbol":"PNMA6A","reagent no.":2,"total luciferase, z-score":-0.873,"outcome":"inactive"}
{"gene symbol":"PNMA6A","reagent no.":3,"total luciferase, z-score":0.368,"outcome":"inactive"}
{"gene symbol":"FRMD6","reagent no.":1,"total luciferase, z-score":-0.464,"outcome":"inactive"}
{"gene symbol":"FRMD6","reagent no.":2,"total luciferase, z-score":1.32,"outcome":"inactive"}
{"gene symbol":"FRMD6","reagent no.":3,"total luciferase, z-score":0.183,"outcome":"inactive"}
{"gene symbol":"TNFRSF10D","reagent no.":1,"total luciferase, z-score":0.00451,"outcome":"inactive"}
{"gene symbol":"TNFRSF10D","reagent no.":2,"total luciferase, z-score":2.25,"outcome":"inactive"}
{"gene symbol":"TNFRSF10D","reagent no.":3,"total luciferase, z-score":-0.0469,"outcome":"inactive"}
{"gene symbol":"ZNF468","reagent no.":1,"total luciferase, z-score":0.668,"outcome":"inactive"}
{"gene symbol":"ZNF468","reagent no.":2,"total luciferase, z-score":-0.132,"outcome":"inactive"}
{"gene symbol":"ZNF468","reagent no.":3,"total luciferase, z-score":-0.00452,"outcome":"inactive"}
{"gene symbol":"SPC24","reagent no.":1,"total luciferase, z-score":0.155,"outcome":"inactive"}
{"gene symbol":"SPC24","reagent no.":2,"total luciferase, z-score":-0.304,"outcome":"inactive"}
{"gene symbol":"SPC24","reagent no.":3,"total luciferase, z-score":-0.62,"outcome":"inactive"}
{"gene symbol":"GREM1","reagent no.":1,"total luciferase, z-score":-0.156,"outcome":"inactive"}
{"gene symbol":"GREM1","reagent no.":2,"total luciferase, z-score":1.35,"outcome":"inactive"}
{"gene symbol":"GREM1","reagent no.":3,"total luciferase, z-score":0.505,"outcome":"inactive"}
{"gene symbol":"UNC13A","reagent no.":1,"total luciferase, z-score":0.324,"outcome":"inactive"}
{"gene symbol":"UNC13A","reagent no.":2,"total luciferase, z-score":0.157,"outcome":"inactive"}
{"gene symbol":"UNC13A","reagent no.":3,"total luciferase, z-score":0.861,"outcome":"inactive"}
{"gene symbol":"MSL2","reagent no.":1,"total luciferase, z-score":1.75,"outcome":"inactive"}
{"gene symbol":"MSL2","reagent no.":2,"total luciferase, z-score":0.288,"outcome":"inactive"}
{"gene symbol":"MSL2","reagent no.":3,"total luciferase, z-score":0.0463,"outcome":"inactive"}
